PubChem BioAssay AID652259, Drosophila RNAi Screening Center, 2013
In all, the deposit lists about 22,000 reagents; shown is an unselected part of those with a known target gene and a result. In the full data, 233 (1.1%) are marked active. 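Light values are raw, unnormalised plate reads; the ratio scores behind the reporter calls were not deposited.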 Not given: the amount of reagent, the time to read-out, the dose of the treatment.

Aim: 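Knock-downs that push a Wingless-driven reporter up or down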 (primary screen)
System: Drosophila clone 8 imaginal disc epithelial cells
Reagent: long dsRNA against Drosophila genes
Conditions: pathway stimulated by co-transfected Wingless expression plasmid
Detection: 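Firefly luciferase from a tcf-site Wingless reporter, measured alongside co-transfected Renilla luciferase that tracks transfection; pathway stimulated by a Wingless plasmid; the firefly-to-Renilla ratio is not deposited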
Scale: firefly reporter light: higher = more Wg reporter light, before normalisation; Renilla control light: higher = more transfected or surviving cells
Call rule: 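Strong candidates differ from their plate mean by at least two out of four per-plate statistical tests; weak candidates meet just one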
Meaning of the calls: active = candidate regulator (raises or lowers reporter); inactive = not a candidate

{"target gene": "Gcna (GeneID 31139)", "DRSC id": "DRSC18553", "firefly reporter light, replicate 1": 2471, "firefly reporter light, replicate 2": 7943, "Renilla control light, replicate 1": 1600, "Renilla control light, replicate 2": 3642, "call": "inactive"}
{"target gene": "CG11815 (GeneID 38263)", "DRSC id": "DRSC08209", "firefly reporter light, replicate 1": 3835, "Renilla control light, replicate 1": 1250, "call": "inactive"}
{"target gene": "dwg (GeneID 31265)", "DRSC id": "DRSC18766", "firefly reporter light, replicate 1": 2349, "firefly reporter light, replicate 2": 8226, "Renilla control light, replicate 1": 1136, "Renilla control light, replicate 2": 2145, "call": "inactive"}
{"target gene": "CG7568 (GeneID 43482)", "DRSC id": "DRSC16259", "firefly reporter light, replicate 1": 9106, "Renilla control light, replicate 1": 3460, "call": "inactive"}
{"target gene": "Rab3-GAP (GeneID 34626)", "DRSC id": "DRSC02001", "firefly reporter light, replicate 1": 18561, "Renilla control light, replicate 1": 5168, "call": "inactive"}
{"target gene": "Prosalpha7 (GeneID 36018)", "DRSC id": "DRSC07516", "firefly reporter light, replicate 1": 3952, "Renilla control light, replicate 1": 1706, "call": "inactive"}
{"target gene": "cysu (GeneID 42100)", "DRSC id": "DRSC15902", "firefly reporter light, replicate 1": 12468, "Renilla control light, replicate 1": 3031, "call": "inactive"}
{"target gene": "CG2224 (GeneID 43617)", "DRSC id": "DRSC15429", "firefly reporter light, replicate 1": 6220, "Renilla control light, replicate 1": 2688, "call": "inactive"}
{"target gene": "Drsl3 (GeneID 317955)", "DRSC id": "DRSC22630", "firefly reporter light, replicate 1": 6.84e5, "firefly reporter light, replicate 2": 7.00e5, "Renilla control light, replicate 1": 2.16e5, "Renilla control light, replicate 2": 1.54e5, "call": "inactive"}
{"target gene": "CR18275 (GeneID 8674032)", "DRSC id": "DRSC18151", "firefly reporter light, replicate 1": 27556, "Renilla control light, replicate 1": 23840, "call": "inactive"}
{"target gene": "CG7102 (GeneID 34079)", "DRSC id": "DRSC02647", "firefly reporter light, replicate 1": 10000, "Renilla control light, replicate 1": 4552, "call": "inactive"}
{"target gene": "CG7102 (GeneID 34079)", "DRSC id": "DRSC03007", "firefly reporter light, replicate 1": 2331, "firefly reporter light, replicate 2": 5973, "Renilla control light, replicate 1": 765, "Renilla control light, replicate 2": 2649, "call": "inactive"}
{"target gene": "E(spl)m2-BFM (GeneID 43155)", "DRSC id": "DRSC16991", "firefly reporter light, replicate 1": 12003, "Renilla control light, replicate 1": 5024, "call": "inactive"}
{"target gene": "Ythdc1 (GeneID 38420)", "DRSC id": "DRSC08141", "firefly reporter light, replicate 1": 7463, "Renilla control light, replicate 1": 3003, "call": "inactive"}
{"target gene": "plh (GeneID 40615)", "DRSC id": "DRSC12294", "firefly reporter light, replicate 1": 27520, "Renilla control light, replicate 1": 7369, "call": "inactive"}
{"target gene": "l(3)04053 (GeneID 46158)", "DRSC id": "DRSC11640", "firefly reporter light, replicate 1": 8179, "Renilla control light, replicate 1": 3064, "call": "inactive"}
{"target gene": "CG15169 (GeneID 35161)", "DRSC id": "DRSC02470", "firefly reporter light, replicate 1": 2966, "firefly reporter light, replicate 2": 5175, "Renilla control light, replicate 1": 504, "Renilla control light, replicate 2": 2277, "call": "inactive"}

In a second layout: entries from further up.
target gene,DRSC id,"firefly reporter light, replicate 1","firefly reporter light, replicate 2","Renilla control light, replicate 1","Renilla control light, replicate 2",call
CG7102 (GeneID 34079),DRSC02647,10000,,4552,,inactive
CG7102 (GeneID 34079),DRSC03007,2331,5973,765,2649,inactive
